The other results are listed elsewhere or left out. Repeats in this data set agree poorly, so a single value says little.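 Fusion between ACE2-bearing and full-length-spike-bearing U2OS cells was measured by imaging as the percentage of nuclei with both cell types' fluorescent markers. An inhibitory hit is a non-toxic compound whose fusion z-score is below -3, more than three standard deviations beneath the plate's DMSO wells.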
The compounds below were run on U2OS ACE2 x SARS-CoV-2 spike co-culture (assay: cell-cell fusion (fraction fused) z-score vs plate DMSO control; higher = more fusion). Settings: 30 µM; 5 h; toxicity class: non-toxic, passed QC.

| SMILES | cell-cell fusion (z-score) |
| --- | --- |
| Cc1cn(-c2cc(NC(=O)c3ccc(C)c(Nc4nccc(-c5cccnc5)n4)c3)cc(C(F)(F)F)c2)cn1 [Nilotinib (AMN-107)] | inactive: 2.72 |
| CCN(CC)C(=O)c1ccc(O)c(OC)c1 | inactive: 3.02 |
| CCN(CC)C(=O)c1ccc(O)c(OC)c1 [Vanillic acid diethylamide] | inactive: 1.78 |
| CCOC(=O)[C@H](CCc1ccccc1)N[C@@H](C)C(=O)N1Cc2ccccc2C[C@H]1C(=O)O.Cl | inactive: -0.111 |
| COc1ccc2c(c1)c(CC(=O)O)c(C)n2C(=O)c1ccc(Cl)cc1 [Indometacin] | inactive: 3.4 |
| CN[C@@H]1[C@@H](O[C@H]2O[C@H](CO)[C@@H](N)[C@H](O)[C@H]2O)O[C@H]2C[C@@H](N)[C@H](O[C@H]3[C@H](O)[C@@H](O)[C@H](N)C[C@@H]3N)O[C@@H]2[C@@H]1O | inactive: 2.44 |
| OC[C@@H](O)[C@@H](O[C@@H]1O[C@H](CO)[C@@H](O)[C@H](O)[C@H]1O)[C@H](O)[C@@H](O)CO | inactive: 1.64 |
| CN1C(=O)CC(c2ccccc2)C1=O (stereo not given) | inactive: 2.72 |
| C=CCc1ccc([N+](C)(C)CCC(=O)CC[N+](C)(C)c2ccc(CC=C)cc2)cc1.[Br-].[Br-] | inactive: 2.03 |
| CCCCCCCCC(=O)NCc1ccc(O)c(OC)c1 | inactive: -0.483 |
| CNCCc1ccc(O)c(O)c1.Cl [N-Methyldopamine hydrochloride] | inactive: -2.07 |
| COC(=O)C(c1ccccc1)C1CCCCN1.Cl (stereo not given) | inactive: 4.3 |
| CNCC[C@H](Oc1ccc(C(F)(F)F)cc1)c1ccccc1.Cl [S-(+)-Fluoxetine hydrochloride] | inactive: 0.0444 |
| Cl.Clc1ccc(N2CCN(Cc3c[nH]c4ncccc34)CC2)cc1 [L-745,870 hydrochloride] | inactive: 2.78 |
| O=C([O-])c1ccccc1-c1c2cc(Br)c(=O)cc-2oc2[c]([Hg][OH])c([O-])c(Br)cc12.[Na+].[Na+] | inactive: 2.67 |
| Nc1ccc(C(=O)[O-])c(O)c1.O.O.[Na+] [Sodium 4-aminosalicylate dihydrate] | inactive: 2.69 |
| O=C(O)CC[C@H]1CC[C@@](c2cc(F)ccc2F)(S(=O)(=O)c2ccc(Cl)cc2)CC1 | inactive: 2.65 |
| CC#C[C@]1(O)CC[C@H]2[C@@H]3CCC4=CC(=O)CCC4=C3[C@@H](c3ccc(N(C)C)cc3)C[C@@]21C [Mifepristone] | inactive: 2.73 |
| NC(=O)c1ccccc1 [Benzamide] | inactive: 1.24 |
| CCN[C@H]1CN(CCCOC)S(=O)(=O)c2sc(S(N)(=O)=O)cc21 [Brinzolamide] | inactive: 0.972 |
| CCN(CC)C(=O)/C(C#N)=C/c1cc(O)c(O)c([N+](=O)[O-])c1 | inactive: 1.01 |
| Cc1cc2c(C(C)C)c(O)c(O)c(C=O)c2c(O)c1-c1c(C)cc2c(C(C)C)c(O)c(O)c(C=O)c2c1O [Gossypol] | active: -6.77 |

A different layout for some results above:
SMILES	cell-cell fusion (z-score)
O=C([O-])c1ccccc1-c1c2cc(Br)c(=O)cc-2oc2[c]([Hg][OH])c([O-])c(Br)cc12.[Na+].[Na+]	inactive: 2.67
NC(=O)c1ccccc1 [Benzamide]	inactive: 1.24

(cont.)

| SMILES | cell-cell fusion (z-score) |
| --- | --- |
| CC(C)(C)c1onc(O)c1CC([NH3+])C(=O)[O-] (stereo not given) | inactive: 1.04 |
| COC(=O)C[C@H]1C(C)(C)C(=O)[C@@H]2CC3=C4CC(=O)O[C@@H](c5ccoc5)[C@]4(C)CCC3[C@@]1(C)C2=O (stereo not given in full) | inactive: 0.862 |
| CNS(=O)(=O)Cc1ccc2[nH]cc(CCN(C)C)c2c1.O=C(O)CCC(=O)O | inactive: 2.65 |
| COc1ccc(CCN(C)CCCC(C#N)(c2cc(OC)c(OC)c(OC)c2)C(C)C)cc1OC.Cl (racemic) [(±)-Methoxyverapamil hydrochloride] | inactive: 3.52 |
| COc1ccc(CN(CCN(C)C)c2ncccn2)cc1.Cl | inactive: 3.43 |
| Cc1cn([C@H]2C[C@@H](N=[N+]=[N-])[C@@H](CO)O2)c(=O)[nH]c1=O [3'-Azido-3'-deoxythymidine] | inactive: 1.53 |
| CN1CCN(CCCN2c3ccccc3Sc3ccc(C(F)(F)F)cc32)CC1.Cl.Cl | inactive: 3.46 |
| NC(=O)N1c2ccccc2C=Cc2ccccc21 [Carbamazepine] | inactive: 1.05 |
| NC(=O)N1c2ccccc2C=Cc2ccccc21 | inactive: 0.899 |
| CN(C)CCCN1c2ccccc2Sc2ccc(Cl)cc21 | inactive: 0.457 |
| CO[C@H]1C[C@H](O[C@H]2[C@H](C)[C@@H](OC3O[C@H](C)C[C@H](N(C)C)[C@H]3OC(C)=O)[C@@H](C)C[C@]3(CO3)C(=O)[C@H](C)[C@@H](OC(C)=O)[C@@H](C)[C@@H](C)OC(=O)[C@@H]2C)O[C@@H](C)[C@@H]1OC(C)=O (stereo not given in full) | inactive: 2.96 |
| Br.C=CCN1CCc2cc(O)c(O)cc2C(c2ccccc2)C1 (racemic) | inactive: -0.491 |
| CC(C)=CCCC1(C)C=Cc2c(O)c3c(c(CC=C(C)C)c2O1)OC12C(=CC4CC1C(C)(C)OC2(C/C=C(/C)C(=O)O)C4=O)C3=O (stereo not given) | inactive: 1.9 |
| CC(C)NCC(O)c1ccc(NS(C)(=O)=O)cc1.Cl (stereo not given) | inactive: 2.43 |
| O=c1[nH]c(=S)[nH]c(-c2ccccc2)c1Cc1c(O)ccc2ccccc12 [Cambinol] | inactive: 0.941 |
| Cl.NCCc1ccc(S(=O)(=O)F)cc1 [4-(2-Aminoethyl)benzenesulfonyl fluoride hydrochloride] | inactive: 1.96 |
| C[C@@H]1CC[C@H]2[C@@H](C)C(=O)O[C@@H]3O[C@]4(C)CC[C@@H]1[C@]32OO4 | inactive: 2.71 |
| CCN(CC)C(=O)[C@]1(c2ccccc2)C[C@@H]1CN.Cl [Milnacipran hydrochloride] | inactive: 2.12 |
| COc1ccc(C(=O)NCc2ccc(OCCN(C)C)cc2)cc1OC | inactive: 3.23 |
| CN[C@@H]1[C@H](O)[C@H](NC)[C@H]2O[C@@]3(O)C(=O)C[C@@H](C)O[C@H]3O[C@@H]2[C@H]1O.Cl.Cl [Spectinomycin dihydrochloride] | inactive: 2.51 |
| COc1cc(NS(=O)(=O)c2ccc(N)cc2)ncn1 | inactive: 3.64 |
| O=c1c(-c2ccc(O)cc2)coc2cc(O)ccc12 [Daidzein] | inactive: 2.21 |

Exported as labelled records: entries from further up.
CN1C(=O)CC(c2ccccc2)C1=O (stereo not given)
  cell-cell fusion (z-score): inactive: 2.72
C=CCc1ccc([N+](C)(C)CCC(=O)CC[N+](C)(C)c2ccc(CC=C)cc2)cc1.[Br-].[Br-]
  cell-cell fusion (z-score): inactive: 2.03

Carrying on.

| SMILES | cell-cell fusion (z-score) |
| --- | --- |
| COC(=O)[C@@H]1OC(=O)C2OC23[C@@]1(C)CCC1[C@@]2(C)CCC(=O)C(C)(C)C2C[C@@H](OC(C)=O)[C@]13C (stereo not given in full) | inactive: 1.91 |
| Br.CN1[C@@H]2C[C@@H](OC(=O)[C@H](CO)c3ccccc3)C[C@H]1[C@@H]1O[C@@H]12.O.O.O [Scopolamine HBr trihydrate] | inactive: 1.93 |
| CN(C)CCCN1c2ccccc2CCc2ccc(Cl)cc21.Cl [Clomipramine hydrochloride] | inactive: -2.15 |
| O=c1c2ccccc2oc2ccccc12 | inactive: 2.93 |
| Nc1nc2[nH]cc(CCc3ccc(C(=O)N[C@@H](CCC(=O)[O-])C(=O)[O-])cc3)c2c(=O)[nH]1.[Na+].[Na+] [Pemetrexed disodium] | inactive: 1.31 |
| C[C@@H]1O[C@@H](O[C@@H]2C=C3CCC4C(CC[C@]5(C)[C@@H](c6ccc(=O)oc6)CC[C@]45O)[C@@]3(C)CC2)C(O)C(O)[C@H]1O (stereo not given in full) | inactive: 0.00325 |
| CNS(=O)(=O)Cc1ccc2[nH]cc(CCN(C)C)c2c1.O=C(O)CCC(=O)O [Sumatriptan succinate] | inactive: 2.32 |
| NC(=O)[C@@H]1CC[C@@H]2CN1C(=O)N2OS(=O)(=O)[O-].[Na+] [Avibactam sodium] | inactive: 1.71 |
| OCCN1CCN(CCCN2c3ccccc3Sc3ccc(Cl)cc32)CC1 [Perphenazine] | inactive: -0.297 |
| CC(=O)N[C@@H](CCC(N)=O)C(=O)O.NCCO | inactive: 0.918 |
| CC(=O)O[C@H]1CC[C@@]2(C)C(CC[C@]3(C)C2CC=C2C4CC(C)(C)CC[C@]4(C)CC[C@]23C)C1(C)C (stereo partly drawn) [beta-AMYRIN ACETATE] | inactive: 1.84 |
| COc1ccc(-c2nc(N3CCOCC3)c3sc(CN(C)c4ncc(C(=O)NO)cn4)cc3n2)cn1 | inactive: 1.9 |
| CC(C)(O)CC[C@@H](O)[C@](C)(O)C1CC[C@@]2(O)C3=CC(=O)C4C[C@@H](O)[C@@H](O)C[C@]4(C)C3CC[C@]12C (stereo not given in full) | inactive: 2.13 |
| C[C@@H]1CN(CC(=O)Nc2ccc3c(c2)Cc2cccc(-c4cc(=O)cc(N5CCOCC5)o4)c2S3)C[C@H](C)O1 | inactive: 0.234 |
| COC(=O)C1=C(C)NC(C)=C(C(=O)OC(C)(C)CN(C)CCC(c2ccccc2)c2ccccc2)C1c1cccc([N+](=O)[O-])c1.Cl (stereo not given) [Lercanidipine hydrochloride hemihydrate] | inactive: 3.12 |
| CC(C)N1CCN(c2ccc(OC[C@H]3CO[C@](Cn4cncn4)(c4ccc(Cl)cc4Cl)O3)cc2)CC1 [Terconazole] | inactive: 2.2 |
| COc1cccc(C(=O)NCCN2CCN(c3ccc(Cl)cc3)CC2)c1 | inactive: 1.83 |
| O=C(O)C1CSCN1 (stereo not given) | inactive: 0.942 |
| CN1CCC(OC(c2ccccc2)c2ccccc2)CC1.Cl | inactive: 0.821 |
| CC1(C)[C@H](C(=O)O)N2C(=O)C[C@H]2S1(=O)=O [Sulbactam] | inactive: 2.63 |
| COc1ccnc(CS(=O)c2nc3cc(OC(F)F)ccc3[nH]2)c1OC (stereo not given) | inactive: 3.53 |

Source: the supplement of paper PMC8104966
